These are yes or no findings as the source states them, for the method shown. Binding seen in cells or lysates may run through a third protein. Binding can be weak; no strength is given.
Target: YTHDF1-4A (NES-deficient mutant) (UniProt Q9BYJ9)
Experiment: co-IP; cells transfected with SFB-YTHDF1 (WT, AFA or 4A) and HA-CRM1; some samples treated with KPT-330 (Crm1 inhibitor, 5 uM, 24 h), TMG plus glucose, or acetyl-5S-GlcNAc (OGT inhibitor, 100 uM, 24 h)

Chains of the proteins cited; added tags and fusions are not shown. Lines headed by an entry give the natural chain unless they say otherwise; changes in a name come on top.
UniProt Q9BYJ9: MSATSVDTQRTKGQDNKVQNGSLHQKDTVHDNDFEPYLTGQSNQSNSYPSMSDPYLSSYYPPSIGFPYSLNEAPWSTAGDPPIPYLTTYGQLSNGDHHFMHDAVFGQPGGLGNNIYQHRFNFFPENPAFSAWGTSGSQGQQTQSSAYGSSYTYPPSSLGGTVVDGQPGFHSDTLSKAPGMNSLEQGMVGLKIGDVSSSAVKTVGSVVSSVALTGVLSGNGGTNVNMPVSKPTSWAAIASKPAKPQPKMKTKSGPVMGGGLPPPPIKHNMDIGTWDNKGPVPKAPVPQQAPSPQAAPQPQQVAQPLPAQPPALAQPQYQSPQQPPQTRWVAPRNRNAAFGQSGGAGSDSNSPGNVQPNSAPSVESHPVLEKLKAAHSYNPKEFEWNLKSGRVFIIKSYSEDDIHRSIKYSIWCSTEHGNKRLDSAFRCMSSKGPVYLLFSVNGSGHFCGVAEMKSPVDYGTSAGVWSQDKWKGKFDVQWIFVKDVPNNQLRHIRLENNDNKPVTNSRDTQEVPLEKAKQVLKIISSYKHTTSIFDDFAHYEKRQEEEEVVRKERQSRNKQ
UniProt O14980: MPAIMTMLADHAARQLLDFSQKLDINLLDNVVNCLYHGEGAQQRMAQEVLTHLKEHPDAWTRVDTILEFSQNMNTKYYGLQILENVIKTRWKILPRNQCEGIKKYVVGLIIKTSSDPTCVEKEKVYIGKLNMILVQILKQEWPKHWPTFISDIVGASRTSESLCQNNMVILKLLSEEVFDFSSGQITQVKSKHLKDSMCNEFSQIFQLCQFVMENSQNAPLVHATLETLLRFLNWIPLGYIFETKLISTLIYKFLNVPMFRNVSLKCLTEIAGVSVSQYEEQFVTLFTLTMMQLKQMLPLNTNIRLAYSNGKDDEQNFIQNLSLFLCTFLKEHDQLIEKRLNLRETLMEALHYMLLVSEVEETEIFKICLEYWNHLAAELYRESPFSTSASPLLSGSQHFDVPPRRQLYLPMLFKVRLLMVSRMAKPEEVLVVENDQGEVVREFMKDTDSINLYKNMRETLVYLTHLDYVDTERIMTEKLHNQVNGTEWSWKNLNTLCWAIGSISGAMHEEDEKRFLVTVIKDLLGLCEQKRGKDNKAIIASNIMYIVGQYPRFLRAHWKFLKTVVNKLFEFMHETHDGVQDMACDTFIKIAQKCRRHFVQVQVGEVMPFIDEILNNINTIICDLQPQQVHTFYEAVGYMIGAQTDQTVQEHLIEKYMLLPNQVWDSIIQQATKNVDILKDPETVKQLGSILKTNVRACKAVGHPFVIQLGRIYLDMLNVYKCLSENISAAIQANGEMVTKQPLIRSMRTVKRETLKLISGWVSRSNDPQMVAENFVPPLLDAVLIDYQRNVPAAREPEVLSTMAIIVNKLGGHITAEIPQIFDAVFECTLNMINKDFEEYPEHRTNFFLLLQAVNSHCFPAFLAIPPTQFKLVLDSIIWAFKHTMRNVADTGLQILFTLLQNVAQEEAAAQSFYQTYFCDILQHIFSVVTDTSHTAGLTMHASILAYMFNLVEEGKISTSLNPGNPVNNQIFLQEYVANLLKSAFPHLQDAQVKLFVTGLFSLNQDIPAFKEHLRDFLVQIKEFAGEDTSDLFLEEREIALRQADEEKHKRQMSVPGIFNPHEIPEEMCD

HA-CRM1 (exportin 1) (from UniProt O14980 1-1071)
binding: binds
